Paper doi:10.1101/2023.07.03.547506

Protein sequences, listed by entry. Tags and fused reporters are not part of them. Residues count along the entry.
UniProt O95292, residues 7-124: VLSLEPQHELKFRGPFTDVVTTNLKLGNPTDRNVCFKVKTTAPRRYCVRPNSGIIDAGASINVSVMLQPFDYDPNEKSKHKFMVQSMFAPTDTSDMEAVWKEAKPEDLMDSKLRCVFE
UniProt Q8WYP5: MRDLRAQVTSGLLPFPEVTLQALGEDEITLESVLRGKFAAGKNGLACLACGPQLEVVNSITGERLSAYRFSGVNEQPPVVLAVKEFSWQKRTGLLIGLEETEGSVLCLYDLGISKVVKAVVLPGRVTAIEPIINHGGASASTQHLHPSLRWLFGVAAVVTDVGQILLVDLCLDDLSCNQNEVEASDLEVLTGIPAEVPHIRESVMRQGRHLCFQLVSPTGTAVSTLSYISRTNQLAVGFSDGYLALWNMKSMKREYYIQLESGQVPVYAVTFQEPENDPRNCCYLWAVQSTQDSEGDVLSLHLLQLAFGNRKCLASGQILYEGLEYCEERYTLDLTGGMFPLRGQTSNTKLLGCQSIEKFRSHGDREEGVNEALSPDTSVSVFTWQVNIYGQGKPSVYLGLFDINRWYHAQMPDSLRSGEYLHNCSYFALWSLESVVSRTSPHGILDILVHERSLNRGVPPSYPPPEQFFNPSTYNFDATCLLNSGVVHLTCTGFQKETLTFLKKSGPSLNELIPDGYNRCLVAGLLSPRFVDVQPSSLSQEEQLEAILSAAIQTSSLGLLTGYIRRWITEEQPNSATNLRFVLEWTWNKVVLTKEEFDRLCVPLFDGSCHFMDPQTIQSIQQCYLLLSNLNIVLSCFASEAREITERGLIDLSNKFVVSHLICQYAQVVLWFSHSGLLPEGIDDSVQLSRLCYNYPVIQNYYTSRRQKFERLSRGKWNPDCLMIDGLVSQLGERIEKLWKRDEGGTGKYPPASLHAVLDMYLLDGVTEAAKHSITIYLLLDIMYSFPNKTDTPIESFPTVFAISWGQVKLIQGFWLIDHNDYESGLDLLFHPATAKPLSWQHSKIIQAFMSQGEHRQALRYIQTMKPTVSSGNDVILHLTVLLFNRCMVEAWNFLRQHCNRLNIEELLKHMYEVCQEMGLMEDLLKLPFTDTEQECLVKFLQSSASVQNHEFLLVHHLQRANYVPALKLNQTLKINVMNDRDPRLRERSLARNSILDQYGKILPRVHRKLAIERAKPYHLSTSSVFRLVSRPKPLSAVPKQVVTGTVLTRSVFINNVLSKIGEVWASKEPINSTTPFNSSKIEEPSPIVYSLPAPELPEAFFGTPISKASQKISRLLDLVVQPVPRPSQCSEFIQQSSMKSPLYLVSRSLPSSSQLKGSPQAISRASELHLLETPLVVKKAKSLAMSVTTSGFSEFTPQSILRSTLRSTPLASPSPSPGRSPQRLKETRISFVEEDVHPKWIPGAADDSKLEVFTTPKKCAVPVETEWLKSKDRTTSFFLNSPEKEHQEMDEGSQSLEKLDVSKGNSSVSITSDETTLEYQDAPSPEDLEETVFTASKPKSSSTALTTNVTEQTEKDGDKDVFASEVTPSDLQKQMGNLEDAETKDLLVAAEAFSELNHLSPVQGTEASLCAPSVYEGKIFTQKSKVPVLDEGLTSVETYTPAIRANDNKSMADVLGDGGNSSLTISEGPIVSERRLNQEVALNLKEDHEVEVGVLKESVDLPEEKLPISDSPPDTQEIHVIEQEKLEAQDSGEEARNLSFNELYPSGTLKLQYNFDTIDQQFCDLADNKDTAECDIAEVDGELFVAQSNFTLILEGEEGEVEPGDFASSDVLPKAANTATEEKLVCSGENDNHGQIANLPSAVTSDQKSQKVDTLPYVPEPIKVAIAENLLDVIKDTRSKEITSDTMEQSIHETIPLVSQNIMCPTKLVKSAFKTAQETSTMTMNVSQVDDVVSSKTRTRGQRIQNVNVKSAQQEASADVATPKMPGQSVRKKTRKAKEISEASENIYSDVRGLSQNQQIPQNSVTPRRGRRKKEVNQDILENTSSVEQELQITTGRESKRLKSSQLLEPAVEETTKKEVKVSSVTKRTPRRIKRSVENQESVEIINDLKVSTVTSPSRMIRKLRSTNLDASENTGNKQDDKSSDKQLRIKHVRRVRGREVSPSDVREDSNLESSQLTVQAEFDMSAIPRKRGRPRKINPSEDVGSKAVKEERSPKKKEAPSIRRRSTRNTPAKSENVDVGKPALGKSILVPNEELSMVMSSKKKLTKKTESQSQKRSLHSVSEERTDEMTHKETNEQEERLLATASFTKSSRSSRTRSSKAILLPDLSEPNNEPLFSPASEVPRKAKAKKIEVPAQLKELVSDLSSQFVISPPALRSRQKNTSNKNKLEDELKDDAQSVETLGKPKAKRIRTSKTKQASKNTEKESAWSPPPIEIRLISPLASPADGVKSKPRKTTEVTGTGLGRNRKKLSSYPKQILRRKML

Target: GST-tagged wild type MSP-domain of VAPB (UniProt O95292)
Assay: affinity purification with mass spectrometry

binding: binds
Substance: ELYS (embryonic large molecule derived from yolk sac), endogenous full-length nucleoporin (from UniProt Q8WYP5 1-2266)

No constants are given. Whether binding was seen depends on the method and setting. In cells and extracts the contact can be indirect. These calls come from enrichment with a bait or labelling near it, and not all partners need be listed.
